# Measured values from PubChem BioAssay (EPA / NIEHS).
# Amino acid sequences for entries named in this document (tags omitted). A change or cut given only in a name is not applied to a line headed by its entry.
# UniProt P10276, whole entry, looked up: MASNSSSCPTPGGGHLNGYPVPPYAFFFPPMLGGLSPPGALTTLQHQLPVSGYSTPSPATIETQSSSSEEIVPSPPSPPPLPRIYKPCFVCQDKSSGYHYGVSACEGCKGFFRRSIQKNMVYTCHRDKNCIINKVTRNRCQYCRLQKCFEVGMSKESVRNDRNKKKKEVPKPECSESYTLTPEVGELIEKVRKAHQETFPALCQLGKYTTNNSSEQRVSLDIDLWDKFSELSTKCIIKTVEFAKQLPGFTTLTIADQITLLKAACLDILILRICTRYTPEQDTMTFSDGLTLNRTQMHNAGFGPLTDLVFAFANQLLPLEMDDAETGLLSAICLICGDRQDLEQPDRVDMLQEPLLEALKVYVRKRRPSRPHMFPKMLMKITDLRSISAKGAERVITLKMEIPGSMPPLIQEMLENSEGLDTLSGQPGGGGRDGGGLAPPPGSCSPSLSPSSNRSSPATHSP
# UniProt P37231: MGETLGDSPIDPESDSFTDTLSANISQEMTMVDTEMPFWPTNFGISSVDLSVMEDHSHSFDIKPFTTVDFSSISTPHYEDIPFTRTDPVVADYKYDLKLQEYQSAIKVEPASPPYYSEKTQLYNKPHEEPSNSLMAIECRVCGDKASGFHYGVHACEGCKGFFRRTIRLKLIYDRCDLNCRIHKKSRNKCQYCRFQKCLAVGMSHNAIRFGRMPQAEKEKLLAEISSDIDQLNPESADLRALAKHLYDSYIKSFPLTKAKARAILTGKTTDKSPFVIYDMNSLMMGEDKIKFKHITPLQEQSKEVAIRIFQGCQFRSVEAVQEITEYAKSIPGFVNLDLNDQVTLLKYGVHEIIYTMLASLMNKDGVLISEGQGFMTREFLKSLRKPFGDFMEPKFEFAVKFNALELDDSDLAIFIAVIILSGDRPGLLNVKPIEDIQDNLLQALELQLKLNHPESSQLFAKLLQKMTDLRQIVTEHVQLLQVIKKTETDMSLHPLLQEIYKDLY
# UniProt Q92753: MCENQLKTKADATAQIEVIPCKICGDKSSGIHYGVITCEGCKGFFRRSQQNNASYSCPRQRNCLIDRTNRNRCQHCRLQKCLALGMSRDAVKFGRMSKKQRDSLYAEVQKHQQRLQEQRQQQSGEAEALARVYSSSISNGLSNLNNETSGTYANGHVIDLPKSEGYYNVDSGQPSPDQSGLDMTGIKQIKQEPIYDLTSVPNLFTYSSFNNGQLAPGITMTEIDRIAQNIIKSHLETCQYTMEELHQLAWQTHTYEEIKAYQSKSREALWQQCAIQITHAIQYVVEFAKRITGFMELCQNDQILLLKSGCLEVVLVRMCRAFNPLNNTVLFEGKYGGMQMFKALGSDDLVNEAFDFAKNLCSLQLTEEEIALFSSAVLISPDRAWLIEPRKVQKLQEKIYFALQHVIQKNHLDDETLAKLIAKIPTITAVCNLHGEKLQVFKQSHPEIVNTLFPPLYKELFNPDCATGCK
# UniProt P51449: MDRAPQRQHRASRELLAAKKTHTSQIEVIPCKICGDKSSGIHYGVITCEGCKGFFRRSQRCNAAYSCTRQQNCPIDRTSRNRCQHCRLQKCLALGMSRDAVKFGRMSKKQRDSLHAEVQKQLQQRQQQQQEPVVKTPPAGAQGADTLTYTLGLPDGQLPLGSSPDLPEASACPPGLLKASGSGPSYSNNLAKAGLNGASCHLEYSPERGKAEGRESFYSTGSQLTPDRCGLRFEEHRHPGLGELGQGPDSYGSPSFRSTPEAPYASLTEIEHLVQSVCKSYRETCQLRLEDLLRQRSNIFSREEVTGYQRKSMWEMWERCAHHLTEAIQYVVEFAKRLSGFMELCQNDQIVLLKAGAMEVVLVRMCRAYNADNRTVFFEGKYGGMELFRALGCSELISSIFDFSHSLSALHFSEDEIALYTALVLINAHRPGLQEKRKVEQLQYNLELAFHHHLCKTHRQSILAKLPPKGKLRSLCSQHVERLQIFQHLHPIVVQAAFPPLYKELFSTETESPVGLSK
# UniProt P19793: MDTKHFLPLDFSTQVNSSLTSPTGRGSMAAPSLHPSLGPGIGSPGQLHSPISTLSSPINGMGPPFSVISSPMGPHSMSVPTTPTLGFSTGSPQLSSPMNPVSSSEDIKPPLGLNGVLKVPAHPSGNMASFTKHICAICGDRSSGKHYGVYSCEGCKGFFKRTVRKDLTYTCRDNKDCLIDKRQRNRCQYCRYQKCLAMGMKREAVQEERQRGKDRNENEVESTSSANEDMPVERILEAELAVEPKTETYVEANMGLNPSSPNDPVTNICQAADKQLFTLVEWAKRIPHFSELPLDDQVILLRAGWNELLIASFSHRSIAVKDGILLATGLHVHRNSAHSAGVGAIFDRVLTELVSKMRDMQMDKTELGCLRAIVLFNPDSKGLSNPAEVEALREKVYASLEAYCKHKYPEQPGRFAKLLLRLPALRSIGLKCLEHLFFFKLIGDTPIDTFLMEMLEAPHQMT
# UniProt P10827: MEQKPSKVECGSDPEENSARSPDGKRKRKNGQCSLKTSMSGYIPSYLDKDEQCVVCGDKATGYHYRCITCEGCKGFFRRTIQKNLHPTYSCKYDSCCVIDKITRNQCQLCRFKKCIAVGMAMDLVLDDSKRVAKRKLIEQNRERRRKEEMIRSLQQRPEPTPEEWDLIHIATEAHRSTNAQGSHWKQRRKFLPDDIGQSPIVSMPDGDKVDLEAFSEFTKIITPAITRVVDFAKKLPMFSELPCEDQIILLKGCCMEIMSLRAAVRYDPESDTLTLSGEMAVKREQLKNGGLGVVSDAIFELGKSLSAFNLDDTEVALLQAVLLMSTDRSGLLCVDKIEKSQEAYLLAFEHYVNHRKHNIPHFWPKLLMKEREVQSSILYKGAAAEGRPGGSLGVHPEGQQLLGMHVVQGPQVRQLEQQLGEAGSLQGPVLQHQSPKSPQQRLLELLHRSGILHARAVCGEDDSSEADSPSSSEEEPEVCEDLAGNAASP
# UniProt P11473: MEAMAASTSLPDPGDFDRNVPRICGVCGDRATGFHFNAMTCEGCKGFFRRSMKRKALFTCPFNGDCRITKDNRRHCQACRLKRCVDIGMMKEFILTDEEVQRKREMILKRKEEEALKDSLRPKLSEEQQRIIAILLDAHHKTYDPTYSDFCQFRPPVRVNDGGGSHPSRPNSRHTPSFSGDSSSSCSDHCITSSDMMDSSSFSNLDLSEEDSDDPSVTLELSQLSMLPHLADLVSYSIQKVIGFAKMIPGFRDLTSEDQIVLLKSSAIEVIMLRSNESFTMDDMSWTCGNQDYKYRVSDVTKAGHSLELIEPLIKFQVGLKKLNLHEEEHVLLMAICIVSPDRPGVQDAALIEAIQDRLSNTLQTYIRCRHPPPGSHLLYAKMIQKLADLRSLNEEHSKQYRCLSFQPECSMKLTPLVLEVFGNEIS
# UniProt O75469: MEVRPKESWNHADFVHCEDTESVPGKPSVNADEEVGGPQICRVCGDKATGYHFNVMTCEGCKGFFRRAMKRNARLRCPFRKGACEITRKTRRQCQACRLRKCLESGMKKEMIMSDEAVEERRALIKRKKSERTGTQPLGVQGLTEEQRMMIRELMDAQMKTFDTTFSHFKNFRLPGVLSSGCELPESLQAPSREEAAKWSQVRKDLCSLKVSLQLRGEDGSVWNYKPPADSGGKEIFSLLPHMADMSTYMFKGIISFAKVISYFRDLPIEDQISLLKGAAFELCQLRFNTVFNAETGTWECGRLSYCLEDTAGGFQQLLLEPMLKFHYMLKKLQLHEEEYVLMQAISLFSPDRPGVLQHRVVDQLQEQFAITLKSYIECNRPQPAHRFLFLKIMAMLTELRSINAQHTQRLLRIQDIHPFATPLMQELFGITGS
# UniProt P13631, whole entry, looked up: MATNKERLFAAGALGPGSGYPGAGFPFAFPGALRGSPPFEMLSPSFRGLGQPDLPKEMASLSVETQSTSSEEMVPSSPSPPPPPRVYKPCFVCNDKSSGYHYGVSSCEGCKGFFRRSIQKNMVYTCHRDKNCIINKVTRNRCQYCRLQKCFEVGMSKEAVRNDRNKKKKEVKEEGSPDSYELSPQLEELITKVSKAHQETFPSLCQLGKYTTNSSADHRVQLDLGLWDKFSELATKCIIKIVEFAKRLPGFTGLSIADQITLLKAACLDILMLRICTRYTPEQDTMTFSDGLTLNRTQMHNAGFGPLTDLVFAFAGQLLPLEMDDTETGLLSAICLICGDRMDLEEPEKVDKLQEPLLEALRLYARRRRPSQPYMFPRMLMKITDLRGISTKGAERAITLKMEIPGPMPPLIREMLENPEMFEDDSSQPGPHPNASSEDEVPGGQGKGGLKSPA
# UniProt P28702: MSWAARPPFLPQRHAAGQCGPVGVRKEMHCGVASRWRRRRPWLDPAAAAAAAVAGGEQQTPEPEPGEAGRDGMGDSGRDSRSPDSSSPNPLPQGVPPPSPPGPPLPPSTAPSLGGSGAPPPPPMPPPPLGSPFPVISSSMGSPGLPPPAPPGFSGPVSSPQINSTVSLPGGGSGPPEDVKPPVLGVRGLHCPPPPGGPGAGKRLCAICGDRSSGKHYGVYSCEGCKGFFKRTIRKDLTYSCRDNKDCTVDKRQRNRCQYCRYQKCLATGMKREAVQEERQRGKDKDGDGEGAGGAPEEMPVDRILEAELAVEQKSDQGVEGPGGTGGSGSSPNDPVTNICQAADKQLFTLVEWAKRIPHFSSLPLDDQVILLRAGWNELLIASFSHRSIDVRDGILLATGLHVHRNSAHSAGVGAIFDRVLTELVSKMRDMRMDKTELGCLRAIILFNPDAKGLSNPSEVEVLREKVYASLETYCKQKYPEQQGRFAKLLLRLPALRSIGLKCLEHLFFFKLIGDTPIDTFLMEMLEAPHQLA
# “And” between values parts separate entries of the source, which are not always exact repeats. Equal values may be shown once. Inconclusive means that the source gave no clear call. Such entries were picked first, then a sample of the others. Where the call is inconclusive, the potency comes from a doubtful curve fit. Some compounds were tested as several samples or in several runs, with calls that do not always agree. The source made the active and inactive calls. Rule for the calls: active = hit-call score of the fitted dose curve at least 0.9, where 1 is the maximum; inconclusive = response in the unintended direction; inactive = score below 0.9.
# Key:
# [1] = target: Retinoic acid receptor alpha (Homo sapiens) (UniProt P10276); test: ATG_RARa_TRANS: Attagene TRANS-FACTORIAL HepG2 Assay for human Retinoic Acid Receptor alpha (RARa) (AID 2283005);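 for AC50: potency for increased reporter signal meaning RARa activation over DMSO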
# Method in brief: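 Reporter transcripts, measured by RT-PCR with fluorescent labeling and capillary electrophoresis after 24 h dosing, reflect activity of an exogenous human RARa–GAL4 fusion in transiently transfected HepG2. Fitted for increase relative to DMSO.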
# [2] = target: Peroxisome proliferator-activated receptor gamma (Homo sapiens) (UniProt P37231); test: ATG_PPARg_TRANS: Attagene TRANS-FACTORIAL HepG2 Assay for human Peroxisome Proliferator-activated Receptor-gamma (PPARg) (AID 2283007)
# Method in brief: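 A TRANS-format multiplexed reporter assay measures activity of an exogenous chimeric NR-Gal4 protein in HepG2 cells. After 24 h of chemical exposure, reporter transcripts are amplified, fluorescently labelled and sized by capillary electrophoresis, with gain of signal scored against DMSO.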
# [3] = target: human RAR-related Orphan Receptor beta (RORb), RORB (gene 6096) (UniProt Q92753); test: ATG_RORb_TRANS: Attagene TRANS-FACTORIAL HepG2 Assay for human RAR-related Orphan Receptor beta (RORb) (AID 2283010);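 for AC50: potency for increased reporter mRNA meaning activation of RORb-Gal4 chimera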
# Method in brief: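 Transfect HepG2 with multiple GAL4-UAS reporter transcription units; dose chemicals for 24 h; isolate RNA, reverse-transcribe and PCR-amplify reporter sequences; label, digest and resolve fragments by capillary electrophoresis; fit increases relative to DMSO.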
# [4] = target: human RAR-related Orphan Receptor gamma (RORg), RORC (gene 6097) (UniProt P51449); test: ATG_RORg_TRANS: Attagene TRANS-FACTORIAL HepG2 Assay for human RAR-related Orphan Receptor gamma (RORg) (AID 2283011);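 for AC50: potency for induction of reporter transcripts above DMSO so activators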
# Method in brief: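 HepG2 cells transiently transfected with GAL4-UAS reporter units and chimeric RORg-Gal4 construct; after 24 h chemical exposure, reporter mRNA measured by RT-PCR with fluorescent capillary electrophoresis, gain of signal fitted against DMSO.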
# [5] = target: Retinoic acid receptor RXR-alpha (Homo sapiens) (UniProt P19793); test: ATG_RXRa_TRANS: Attagene TRANS-FACTORIAL HepG2 Assay for human Retinoid X Receptor alpha (RXRa) (AID 2283012)
# Method in brief: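 Measures exogenous chimeric NR-GAL4 activity in transfected HepG2 liver cells after 24 h of dosing. Induced reporter mRNA was detected by RT-PCR with capillary electrophoresis, and gain of signal was analysed against DMSO.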
# [6] = target: human Thyroid Receptor alpha (THRa1), THRA (gene 7067) (UniProt P10827); test: ATG_THRa1_TRANS: Attagene TRANS-FACTORIAL HepG2 Assay for human Thyroid Receptor alpha (THRa1) (AID 2283014)
# Method in brief: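 HepG2 cells transiently transfected with chimeric NR-Gal4 and GAL4-UAS reporter units, dosed 24 h. Reporter mRNA quantified by RT-PCR, fluorescent labeling, HpaI digestion and capillary electrophoresis; gain-of-signal fit versus DMSO.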
# [7] = target: human Vitamin D Receptor (VDR), VDR (gene 7421) (UniProt P11473); test: ATG_VDR_TRANS: Attagene TRANS-FACTORIAL HepG2 Assay for human Vitamin D Receptor (VDR) (AID 2283022)
# Method in brief: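 HepG2 cells were transiently transfected with GAL4-UAS reporter units and a chimeric VDR-Gal4 construct, then dosed for 24 hours. Reporter mRNA was quantified by RT-PCR, fluorescent labeling, HpaI digestion and capillary electrophoresis; gain of signal analysed vs DMSO.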
# [8] = target: Nuclear receptor subfamily 1 group I member 2 (Homo sapiens) (UniProt O75469); test: ATG_PXR_TRANS: Attagene TRANS-FACTORIAL HepG2 Assay for human Pregnane X Receptor (PXR) (AID 2283008)
# Method in brief: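 Multiplexed TRANS reporter panel in HepG2; this component tracks PXR-Gal4-driven reporter mRNA after 24 h dosing, measured by RT-PCR with capillary electrophoresis fluorescence, fitted against DMSO.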
# [9] = target: human Retinoic Acid Receptor gamma (RARg), RARG (gene 5916) (UniProt P13631); test: ATG_RARg_TRANS: Attagene TRANS-FACTORIAL HepG2 Assay for human Retinoic Acid Receptor gamma (RARg) (AID 2283009);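 for AC50: AC50 is for reporter induction above DMSO meaning RARg activation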
# Method in brief: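 TRANS format measured activity of exogenous NR-GAL4 fusion (RARg) in transfected HepG2 liver cells after 24 h dosing. Induced reporter RNA was detected by RT-PCR/capillary electrophoresis fluorescence, analysed in the positive direction against DMSO.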
# [10] = target: human Retinoid X Receptor beta (RXRb), RXRB (gene 6257) (UniProt P28702); test: ATG_RXRb_TRANS: Attagene TRANS-FACTORIAL HepG2 Assay for human Retinoid X Receptor beta (RXRb) (AID 2283013)
# Method in brief: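 Chimeric receptor-Gal4 activity was assessed in transiently transfected human HepG2 cells after 24 h exposure. Transcripts from GAL4-UAS reporters were quantified by fluorescent RT-PCR and capillary electrophoresis, with DMSO as negative control and baseline.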
compound,measurement,setting,value
O=C1CCC(C2CCCCC2)CC1,AC50,[1],inconclusive: 143 µM and inconclusive: 178 µM and inconclusive: 100 µM
same,outcome,[1],inactive
same,AC50,[2],active: 27.6 µM [middle of 4 runs]
same,AC50,[3],inconclusive: 100 µM
same,outcome,[3],inactive
same,AC50,[4],inconclusive: 180 µM and inconclusive: 100 µM
same,outcome,[4],inactive
same,outcome,[5],inactive
same,AC50,[6],inconclusive: 100 µM
same,outcome,[7],inactive
CCCCCCCCCCCCCC[P+](CCCC)(CCCC)CCCC,AC50,[1],inconclusive: 6.52 µM
same,outcome,[2],inactive
O=P(O)(O)CCC(F)(F)C(F)(F)C(F)(F)C(F)(F)C(F)(F)C(F)(F)C(F)(F)C(F)(F)F,AC50,[1],inconclusive: 263 µM
same,outcome,[1],inactive
same,AC50,[2],inconclusive: 150 µM
same,outcome,[2],inactive
same,AC50,[8],inconclusive: 150 µM
same,AC50,[9],inconclusive: 150 µM
same,AC50,[3],inconclusive: 272 µM
same,outcome,[3],inactive
same,outcome,[5],inactive
same,AC50,[10],inconclusive: 150 µM
same,outcome,[10],inactive
same,AC50,[6],inconclusive: 150 µM
same,AC50,[7],inconclusive: 150 µM
same,outcome,[7],inactive

# An excerpt of these results, bar-delimited:
compound | measurement | setting | value
O=P(O)(O)CCC(F)(F)C(F)(F)C(F)(F)C(F)(F)C(F)(F)C(F)(F)C(F)(F)C(F)(F)F | AC50 | [10] | inconclusive: 150 µM
same | outcome | [10] | inactive
